Laboratory results from the supplement of paper PMC12889115.
Some of the results follow. These are raw signals, not scaled to a control.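 In the initial screen, polymyxin B was used at a concentration that permeabilizes Salmonella's outer membrane but not its inner membrane. Maximum growth was set by DMSO wells with or without polymyxin B. Since plates varied, data were ranked per plate, and compounds giving the lowest OD600 advanced as hits.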

System: Salmonella enterica serovar Typhimurium SL1344
Experiment: bacterial growth OD600 after 18 h with compound and polymyxin B; higher = more bacterial growth (less inhibition)
Settings: 50 µM, Mueller-Hinton broth

Row | SMILES | bacterial growth OD600 (polymyxin B 1 µg/mL) | bacterial growth OD600 (polymyxin B 0.75 µg/mL)
1 | COCC(=O)N1CCC(Oc2ccc(C(=O)NC(C)c3csc(C)n3)cc2)CC1 (centres undefined) | 0.912 | 
2 | CCn1ccnc1CN(C)C(=O)c1cc(OC)ccc1OC1CCN(C2CCCC2)CC1 | 1.25 | 
3 | Cc1ccccc1N1CCN(C2CCCN(C(=O)C3CCCC3)C2)CC1 (centres undefined) | 0.806 | 
4 | O=C(C1CCN(c2nc(-c3ccccc3)nc3c2CCC3)CC1)N1CCCC1 | 0.589 | 
5 | CCc1ccc(CN(C)C(=O)c2cccc(-n3cc(NC(=O)Cc4cccc(C)c4)cn3)c2)nc1 |  | 0.713
6 | CC1(C)Cc2cc(CNCC3(O)CCCN(CC4CCC4)C3=O)ccc2O1 (centres undefined) |  | 0.942
7 | COCC(C)NC(=O)c1ccc(OC2CCN(C3CCCC3)CC2)c(OC)c1 (centres undefined) | 0.967 | 
8 | O=C(NCC(F)(F)F)c1cc(COc2ccc(F)c(F)c2)on1 | 0.638 | 
9 | CC(=O)Nc1cc(C(=O)NCC2CCCN(C(C)C)C2)cc2ncn(CCc3ccccn3)c12 (centres undefined) |  | 0.836
10 | Cc1cc(C(=O)N2CCC(C3CCN(c4ncccn4)CC3)C2)n(C)n1 (centres undefined) |  | 0.792
11 | COCCN(Cc1cccc2cnccc12)CC1CCCN(C2Cc3ccccc3C2)C1 (centres undefined) |  | 0.702
12 | Cc1cc(-c2cc(F)cc3c2OC(CNC(=O)c2ccoc2)C3)ccc1F (centres undefined) |  | 0
13 | COc1ccc(CC2(CCC(=O)NCCc3ccccc3Cl)CCC(=O)N2)c2ccccc12 (centres undefined) |  | 0.695
14 | COc1ccc(C(=O)NCc2cc(C)n(C)n2)cc1OC1CCN(C(C)C)CC1 | 1.08 | 
15 | COc1ccc(CN(C)Cc2nc(-c3cccc(F)c3)oc2C)c2cccnc12 |  | 0.84
16 | c1cnc(N2CCOCC2)c(CNCc2ccc(C3CCCCO3)o2)c1 (centres undefined) | 0.776 | 
17 | CC(C)=CC(=O)N1CCC(Oc2cccc(C(=O)NCc3ccccn3)c2)CC1 | 0.828 | 
18 | COc1cc(CNC2CCN(c3ccc(C(=O)NC4CCCC4)cc3)CC2)cc(OC)c1OC |  | 0.853
19 | COC(=O)[C@@H](NC1CCN(c2ccc(NC(=O)c3cnccn3)cc2)CC1)c1ccccc1 |  | 0.874

Retrieved by compound from above (2):
Row | SMILES | bacterial growth OD600 (polymyxin B 1 µg/mL) | bacterial growth OD600 (polymyxin B 0.75 µg/mL)
8 | O=C(NCC(F)(F)F)c1cc(COc2ccc(F)c(F)c2)on1 | 0.638 | 
2 | CCn1ccnc1CN(C)C(=O)c1cc(OC)ccc1OC1CCN(C2CCCC2)CC1 | 1.25 | 
